Measurements from the supplement of paper PMC5949888.
Most values lie at the floor of the assay. Slopes are relative: functional sequences can read slightly below zero.

Test system: Saccharomyces cerevisiae PS128 hsf1 delta, HSF1(1-493) fusion
Assay: growth estimate (transactivation domain function in HSF1 fusion, heat-shock survival) (a.u. (slope of normalised read count over time)); higher = stronger growth at 37°C, i.e. more transactivation activity
Settings: library: random library
Description: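 Random 60-nt DNA library encoding peptides of up to 20 aa, fused to the C-terminus of yeast HSF1 residues 1-493 (C-terminal TAD deleted) and expressed from the native HSF1 promoter on a CEN plasmid in hsf1-deleted S. cerevisiae PS128. Cells were selected at 37°C on -trp 5-FOA plates for 0, 2, 4, 6 and 8 days and amplicons were sequenced. Growth estimate is the slope of a robust linear fit of total-sum-normalised read counts (normalised to the first time point) over time, using at least 2 replicates. Sequences are classed functional (TAD activity) above a threshold of -0.13, set from stop-codon control sequences.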

Row | Substance | growth estimate
1 | VPT | < -0.25
2 | NMEGDVGR | < -0.25
3 | QTGGGIRGL | < -0.25
4 | TGVRRGMFTGSLSHRYSRSR | < -0.25
5 | PENAGRR | < -0.25
6 | QPDRTSRPAQGAAHDSRIRS | < -0.25
7 | TFAEMNLTIIR | < -0.25
8 | TSDTAALMSAHFELCP | < -0.25
9 | IRPVE | < -0.25
10 | PTLSKLGPG | < -0.25
11 | WVVASGSPQIHEKTGIAGRQ | < -0.25
12 | VRVNRQSDVGTAVNQA | < -0.25
13 | WFVRDSGLWKRVDARAEPRA | < -0.25
14 | CCYFLGRCHHSGQYPIALTV | < -0.25
15 | SHFRPMGMVVITGA | < -0.25
16 | RVTARTLCLR | < -0.25
17 | SLPMAGNRRDIRANRSGRWS | -0.229
18 | TICVGWLAAHCV | < -0.25
19 | DPYHRMGASNGPGARPTL | < -0.25
20 | IEAPVRLPTRAIYESGCARG | < -0.25
21 | VISGATS | < -0.25
22 | DPGRMGNKRSYPYSALLRVV | < -0.25
23 | MQWLRFN | < -0.25
24 | RPMGGVEGIRFGARQAWYRG | < -0.25
25 | LRIQTNS | < -0.25
26 | PISSGRRADPVAWGYDL | -0.237

Row | Substance | growth estimate
27 | AGMKKE | < -0.25
28 | RCLHSPTGRKRTGFACGCWS | < -0.25
29 | LGVCSSERRKTGAQRLLPAP | < -0.25
30 | STVQEFIESAVLGVRFGYT | < -0.25
31 | ASYVSAGCPMGNTSYRTLTP | < -0.25
32 | RGVSERREAETLIYWAIVRL | < -0.25
33 | LSGGDDVPLWVRLSDTSTEV | -0.173
34 | PHISPGSRT | < -0.25
35 | LATIF | < -0.25
36 | NDLWFGTHAEAGPIRC | < -0.25
37 | ISLS | < -0.25
38 | GRSWHKRVAIRGLSA | < -0.25
39 | QSRACSNSQYGWAVRCQGQQ | < -0.25
40 | ERAGSEGRQINRGRECLSGT | < -0.25
41 | RGQTPLSSVTQPSHPGCLAS | < -0.25
42 | SCRKSVWSKA | < -0.25
43 | DWTQGPGPSVPSVTPVCLVA | < -0.25
44 | AKCHQRKSHSAGALS | < -0.25
45 | AVI | -0.191
46 | CVVQLCVGALAIVSK | < -0.25
47 | VTYQIRPEE | < -0.25
48 | VGHPVWIRWRSPSPMFRHRV | 0.0038
49 | LSRREGTYFVVNTSTWQAYS | -0.245
50 | IVSVWTESLMHGRPNGDHVT | < -0.25
51 | FHGSSMATTSRPGMVSSVLP | < -0.25
52 | SWLCFQTCEWCA | < -0.25

Row | Substance | growth estimate
53 | RFLMTRCRCLGGRNLYLLMS | < -0.25
54 | LCDGYPVDPARGGRGAVAPT | < -0.25
55 | IKYVARGPQGDWGSLTCYNA | -0.245
56 | CVLLSALIICYLLNFVTFSY | < -0.25
57 | STRTSCVPDQHRTPMFMSGI | < -0.25
58 | YKSHSPRRLR | < -0.25
59 | YRIRRIGLGVNSEHAPGSGE | < -0.25
60 | ESANSGQCNGFPIHPLDRCP | < -0.25
61 | GSSEARRTGVG | < -0.25
62 | QSLVQ | < -0.25
63 | DAGGSCVIGSQTAV | < -0.25
64 | NDVDYTIIDAACDQAGHSAA | < -0.25
65 | MAKLSLRLTCPFRFVHGGLL | < -0.25
66 | LVNMWSNWLAGL | 0.131
67 | AVVGRCWMY | < -0.25
68 | AGQDLTRG | < -0.25
69 | KQKILNQRVSRSTGQLELLD | < -0.25
70 | RLFLTLKGGIV | < -0.25
71 | VKVAGNVIGFCVLKCLCCKT | < -0.25
72 | VRVIAPAIMRSLSGVTPARS | < -0.25
73 | RLAMCYAFR | < -0.25
74 | GISLAVDRLRHDESYAGSF | < -0.25
75 | VGLILLAGLDVRETYGYIWI | < -0.25
76 | RPTVHQPGQGPHWLVLAVTY | < -0.25
77 | RFYS | < -0.25
78 | LSIIGGHFIGDSALLMTHHS | < -0.25

Row | Substance | growth estimate
79 | SIRGYLCMGDAQFGGAPPRL | < -0.25
80 | TEDT | < -0.25
81 | LAVDVEGLRYIKVGMLGTGN | < -0.25
82 | EQGLENILIAAKQ | -0.231
83 | SRIFHGFHYRTSLARAFY | < -0.25
84 | AVVLAW | < -0.25
85 | LFVQEPGVKRNKV | < -0.25
86 | VPYRSACRVWRSA | < -0.25
87 | GFSVKPVNI | -0.18
88 | DGAQPIPTGSWGCTIVPAQL | -0.235
89 | GNFRRLECH | < -0.25
90 | LSRRCSAWMAYSLPFSSFGG | < -0.25
91 | CRSKWGAIG | < -0.25
92 | GWEWGFGD | 0.0785
93 | VANSPSMWLQLRLGRPNLA | < -0.25
94 | INSSVRRNVLRTRCTDRRCV | < -0.25
95 | YVYLTNTPMEDGRIYGYRLQ | < -0.25
96 | LKGCKLRGACFIR | < -0.25
97 | ILAALRRGRYRAAPLLM | < -0.25
98 | GNQHTGFSR | < -0.25
99 | TPHGHGYGCGIWIPYVSGWA | -0.237
100 | SGKPRDGLRATRRSGGRPSR | < -0.25
101 | VNAIMIARLVIFCLRKI | < -0.25
102 | SSPIVPYR | < -0.25
103 | GRTCKGYPSSSVLIAELKRA | < -0.25
104 | SIDRPRITH | < -0.25

5 records drawn at random from those above:
Row | Substance | growth estimate
102 | SSPIVPYR | < -0.25
81 | LAVDVEGLRYIKVGMLGTGN | < -0.25
104 | SIDRPRITH | < -0.25
89 | GNFRRLECH | < -0.25
103 | GRTCKGYPSSSVLIAELKRA | < -0.25

More records follow.

Row | Substance | growth estimate
105 | SIYDANIGRYLVQLPDHF | -0.236
106 | HRILSACLAWNVSSFLAVLL | < -0.25
107 | PQRAFSVWPRDPSL | < -0.25
108 | APSLTLGGLTGTGFPIGLPG | < -0.25
109 | SRPRVCLSPSRVGPRALLWE | < -0.25
110 | TLRS | < -0.25
111 | STNVVINYGTS | < -0.25
112 | KGGLSRVAISPRSNV | < -0.25
113 | HNGLTNAKL | < -0.25
114 | NYSLATLAMEGSFSVPCWLR | < -0.25
115 | LRDRVQGSGPNNHEACAW | < -0.25
116 | YCTGPIYASLVFWLLGQPET | < -0.25
117 | YLRSLGNSGFKSLRSSISDL | < -0.25
118 | GFIAMPRLS | < -0.25
119 | HFDRKTGPP | < -0.25
120 | TLFLAKIAARPSA | < -0.25
121 | AINGNCLIPCCNDFYPRLRN | -0.25
122 | TYPQQIDSSTILTIILNEHR | < -0.25
123 | NLQ | < -0.25
124 | LVVLAGGPCLAGKDLT | < -0.25
125 | WSRHTVVVENTPGVDAMCSQ | < -0.25
126 | ERICKKSASIASPR | < -0.25
127 | VNVLRPDRRVYPAGLSVDC | < -0.25
128 | WSIRS | < -0.25
129 | HCG | < -0.25
130 | VYGGGVLSPKHVLVFCRLAW | < -0.25

Copied from above, nos. 120–122
Row | Substance | growth estimate
120 | TLFLAKIAARPSA | < -0.25
121 | AINGNCLIPCCNDFYPRLRN | -0.25
122 | TYPQQIDSSTILTIILNEHR | < -0.25

Further results follow:

Row | Substance | growth estimate
131 | VKGRFGPQQVDLSG | < -0.25
132 | LDGIRLPRLILCVSQLV | < -0.25
133 | KWWSTRSKRLIGKVVPLTSP | < -0.25
134 | VGMEFAHWKRRALGMASVSE | < -0.25
135 | VCLNMNHSDKYGGKVTDRLH | < -0.25
136 | RRGRLSRSSVEPLA | < -0.25
137 | CRAAVRVTAT | < -0.25
138 | QQNSRPRGSHARHTRSILVT | < -0.25
139 | LGLD | < -0.25
140 | MAHECRSVRIDSTGP | < -0.25
141 | GRKCGERNLSGEASTVQE | < -0.25
142 | ETCG | < -0.25
143 | RRLWPTLTCRKVLVGTHVKD | < -0.25
144 | QGEQ | < -0.25
145 | LSCLPFVDYYLVLQVFVHVL | < -0.25
146 | VGERGNGVPALRPSLFI | < -0.25
147 | WDARSSSVEVAFLCVWYNEL | < -0.25
148 | GQIL | < -0.25
149 | TGNCLPKIFMDCKLWVAKRA | < -0.25
150 | TCRVYMLTEHGVKKRVTT | < -0.25
151 | GLKI | < -0.25
